# Data taken from paper PMC11535509.
# Results are given in words; binding and its absence hold for the method and conditions named. Some binding calls cover weakened binding; strength is not graded here.
# T1: MICU1, mouse brain (mouse (endogenous in brain)) (UniProt Q8VCX5)
# T1 sequence: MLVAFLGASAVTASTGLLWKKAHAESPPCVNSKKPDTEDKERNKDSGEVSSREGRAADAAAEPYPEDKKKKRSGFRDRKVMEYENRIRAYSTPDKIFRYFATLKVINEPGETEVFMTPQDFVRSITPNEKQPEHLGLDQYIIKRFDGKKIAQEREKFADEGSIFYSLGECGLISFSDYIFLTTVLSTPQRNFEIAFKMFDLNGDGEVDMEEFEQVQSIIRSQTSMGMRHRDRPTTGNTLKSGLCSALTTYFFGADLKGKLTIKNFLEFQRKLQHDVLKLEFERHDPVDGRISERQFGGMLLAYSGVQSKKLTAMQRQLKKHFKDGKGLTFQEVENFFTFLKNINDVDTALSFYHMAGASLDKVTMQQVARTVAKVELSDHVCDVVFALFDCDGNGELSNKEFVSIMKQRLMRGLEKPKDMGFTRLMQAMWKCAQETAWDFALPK
# Tests used:
# [1] = target: EF-hand domain-containing protein D1 (EFHD1), endogenous (human (endogenous in HEK293 and HeLa)) (UniProt Q9BUP0); experiment: non-reducing SDS-PAGE and immunoblot; mitochondria (HeLa, HEK293 or mouse brain) denatured at 70 °C for 10 min in LDS sample buffer with or without 100 mM DTT; shows only disulfide-linked dimers or oligomers
# [2] = target: T1, MICU1, mouse brain (mouse (endogenous in brain)); experiment: as above
binding [1],binding [2],Binder
no binding,,"EF-hand domain-containing protein D1 (EFHD1), endogenous (protein, UniProt Q9BUP0 1-239) MASEELACKLERRLRREEAEESGPQLAPLGAPAPEPKPEPEPPARAPTASADAELSAQLSRRLDINEGAARPRRCRVFNPYTEFPEFSRRLIKDLESMFKLYDAGRDGFIDLMELKLMMEKLGAPQTHLGLKSMIKEVDEDFDGKLSFREFLLIFHKAAAGELQEDSGLMALAKLSEIDVALEGVKGAKNFFEAKVQALSSASKFEAELKAEQDERKREEEERRLRQAAFQKLKANFNT"
,binds,"MICU3, mouse brain (protein, UniProt Q9CTY5 7-523) FLWPPPRLSPALAPQQPFLSPWGRPAGTAPGMSGRPFSCREEDEGAVAEAAWRRRRWGELSIAAAAGGGLVGLVCYQLYGDPRADPSELAAPELEDPPRGRGLLPIPVAAAKETVATGRAITEDLDLYATSRERRFRLFASIECEGQLFMTPYDFILAVTTDEPKFAKTWKSLSKQELSQMLSETPPVWKGSSKLFRNLKERGVISYTEYLFLLCILTKPHAGFRIAFNMFDTDGNEMVDKKEFLVLQEIFRKKNEKRETKGDEEKRAMLRLQLYGYHSPTNSVLKTDAGELVSRSYWDTLRRSTSQALFSDLAERADDITSLVADTTLLVHFFGKKGKAELNFEDFYRFMDNLQTEVLEIEFLSYSNGMNTISEEDFAHILLRYTNVENTSVFLENVRYSISEEKGITFDEFRSFFQFLNNLEDFAIALNMYNFASRSIGQDEFKRAVYVATGLKLSPHLVNTVFKIFDVDKDDQLSYKEFIGIMKDRLHRGFRGYKTVQKYPTFKSCLKKELHSR"
